PubChem BioAssay AID504804 | Drosophila RNAi Screening Center | 2011

- Purpose: 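dsRNAs that improve Kc cell survival under doxorubicin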 (primary screen)
- Cells: Drosophila Kc cells
- Reagents: long dsRNA against Drosophila genes, 0.5 µg dsRNA per well
- Duration: 96 h (48 h knock-down, then 48 h drug)
- Challenge: doxorubicin 5 µg/ml for 48 h, added 48 h after dsRNA
- Detection: 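Luminescent ATP counts per replicate, not normalised, reflecting viable cells after 48 h dsRNA knock-down followed by 48 h of 5 µg/ml doxorubicin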
- Scale: raw ATP luminescence: higher = more viable cells, protection from doxorubicin
- Rule for the call: 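Active when both duplicate wells lie at least 2 SD above the plate mean and protection is confirmed by rescreening and independent dsRNAs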
The screen tested about 19,000 reagents; below is an unselected part of those with a known target gene and a result. In the full data, 47 (0.25%) were called active. 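Signals are raw, not normalised; exact z-scores behind calls not deposited; actives needed confirmation, so some wells reaching 2 SD are inactive.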

target,DRSC id,"raw ATP luminescence, replicate 1","raw ATP luminescence, replicate 2",outcome
Fkbp14 (FK506-binding protein 14),DRSC04615,90423,62737,inactive
CG6180,DRSC02937,81613,58550,inactive
Coq2 (Coenzyme Q biosynthesis protein 2),DRSC16516,61570,63600,inactive
Pp2B-14D (Protein phosphatase 2B at 14D),DRSC20270,2.41e5,2.04e5,inactive
fit (female-specific independent of transformer),DRSC15280,59890,65920,inactive
Surf4 (Surfeit 4),DRSC16875,1.00e5,72690,inactive
hyx (hyrax),DRSC14462,80750,38983,inactive
CG8560,DRSC10994,33767,31943,inactive
CG34310,DRSC00943,3.29e5,3.04e5,inactive
EMC5 (ER membrane protein complex subunit 5),DRSC02469,67400,72143,inactive
Ucp4A (Uncoupling protein 4A),DRSC19996,3.87e5,3.20e5,inactive
CG5819,DRSC04520,23987,36733,inactive
CG31233,DRSC15888,70910,54130,inactive
Lmx1a (LIM homeobox transcription factor 1 alpha),DRSC09726,60823,57177,inactive
Lmx1a (LIM homeobox transcription factor 1 alpha),DRSC10275,31003,30633,inactive
CG15459,DRSC20530,3.49e5,3.35e5,inactive
CG11379,DRSC18629,66940,50220,inactive
CG9701,DRSC11093,35927,46150,inactive
CG18635,DRSC06780,1.76e5,2.04e5,inactive
CG33306,DRSC01899,76890,56603,inactive
Cat (Catalase),DRSC11110,46983,31083,inactive
CG30345,DRSC05144,76673,70750,inactive
Phb1 (Prohibitin 1),DRSC03563,1.10e5,60810,inactive
RhoGAP19D (Rho GTPase activating protein at 19D),DRSC20500,3.21e5,3.46e5,inactive
Dtd (D-aminoacyl-tRNA deacylase),DRSC15362,56183,48347,inactive
CG34199,DRSC05867,1.78e5,1.40e5,inactive
CG2201,DRSC03721,60677,65863,inactive
Acbp6 (Acyl-CoA binding protein 6),DRSC10217,54440,68933,inactive
Act5C (Actin 5C),DRSC17723,43100,45230,inactive
Lcp9 (Larval cuticle protein 9),DRSC04287,36050,55897,inactive
CG12910,DRSC06225,48007,53357,inactive
CG17738,DRSC15257,57433,51683,inactive
Tsp42Ed (Tetraspanin 42Ed),DRSC05940,39960,83513,inactive

5 entries from above, showing only “raw ATP luminescence, replicate 2”.
Dtd (D-aminoacyl-tRNA deacylase) [DRSC15362]: 48347
CG34199 [DRSC05867]: 1.40e5
CG2201 [DRSC03721]: 65863
Acbp6 (Acyl-CoA binding protein 6) [DRSC10217]: 68933
Act5C (Actin 5C) [DRSC17723]: 45230

More reagents:
target,DRSC id,"raw ATP luminescence, replicate 1","raw ATP luminescence, replicate 2",outcome
CG8519,DRSC10985,67810,61120,inactive
Pph13 (PvuII-PstI homology 13),DRSC00775,78383,46477,inactive
whd (withered),DRSC07351,54637,54883,inactive
Sfxn1-3 (Sideroflexin 1/3),DRSC12183,73197,60070,inactive
Tango1 (Transport and Golgi organization 1),DRSC02127,1.14e5,80253,inactive
CG1492,DRSC19605,3.31e5,3.13e5,inactive
CG5639,DRSC15851,41880,41300,inactive
CG32225,DRSC09657,74127,52430,inactive
CG5376,DRSC15782,46250,56060,inactive
Mtl (Mig-2-like),DRSC16751,37430,13130,inactive
frac (faulty attraction),DRSC10867,45030,45833,inactive
cnn (centrosomin),DRSC05422,81523,1.03e5,inactive
CG12419 (retired record),DRSC14513,41727,46727,inactive
Trf2 (TATA box binding protein-related factor 2),DRSC18727,27570,31950,inactive
CG7407,DRSC11824,24700,26093,inactive
Ehbp1 (Eps15 homology domain containing protein-binding protein 1),DRSC06561,51710,64917,inactive
CG31883,DRSC02561,79390,55967,inactive
Tgt (tRNA-guanine transglycosylase),DRSC00672,98887,71013,inactive
ord (orientation disruptor),DRSC04706,39890,57503,inactive
CG14556,DRSC14899,54270,58570,inactive
pths (porthos),DRSC03171,47807,45180,inactive
CG4570,DRSC15602,51267,45727,inactive
Lac (Lachesin),DRSC07452,60457,54473,inactive
p38b (p38b MAP kinase),DRSC03586,75243,79127,inactive
